Experimental data from paper doi:10.1101/2025.02.17.637997, “Phosphorylation-State Modulated Binding of HSP70: Structural Insights and Compensatory Protein Engineering” (bioRxiv, 2025).
No constants are given. Whether binding was seen depends on the method and setting. Some binding calls cover weakened binding; strength is not graded here.

Chains of the proteins cited; added tags and fusions are not shown. Lines headed by an entry give the natural chain unless they say otherwise; changes in a name come on top.
UniProt Q9UNE7: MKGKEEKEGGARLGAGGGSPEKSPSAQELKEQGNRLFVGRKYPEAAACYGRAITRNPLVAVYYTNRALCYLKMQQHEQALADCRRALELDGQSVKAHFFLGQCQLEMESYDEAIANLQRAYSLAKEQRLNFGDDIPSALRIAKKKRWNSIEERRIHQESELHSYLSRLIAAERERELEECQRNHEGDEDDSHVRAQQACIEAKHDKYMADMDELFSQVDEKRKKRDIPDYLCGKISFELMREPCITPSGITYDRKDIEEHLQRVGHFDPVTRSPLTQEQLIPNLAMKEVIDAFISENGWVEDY

Target: T1, N-FITC-Ahx-…
T1 sequence (peptide, FITC-Ahx on the N-terminus): GSGPTIEEVD
Test: fluorescence polarisation; 20 nM N-terminally FITC-labelled peptide, recombinant CHIP constructs at increasing concentrations, 30 minutes at room temperature; one site/total binding fit with Bmax constrained to 100; both purified

- binding: binds weakly
Substance: recombinant full-length CHIP-K30A (from UniProt Q9UNE7 1-303) (enzyme)
